This is one part of the list.

Sequences of proteins named here, by UniProt entry; tags and fusion partners are left off. A change or cut given only in a name is not applied to a line headed by its entry.
UniProt P10398: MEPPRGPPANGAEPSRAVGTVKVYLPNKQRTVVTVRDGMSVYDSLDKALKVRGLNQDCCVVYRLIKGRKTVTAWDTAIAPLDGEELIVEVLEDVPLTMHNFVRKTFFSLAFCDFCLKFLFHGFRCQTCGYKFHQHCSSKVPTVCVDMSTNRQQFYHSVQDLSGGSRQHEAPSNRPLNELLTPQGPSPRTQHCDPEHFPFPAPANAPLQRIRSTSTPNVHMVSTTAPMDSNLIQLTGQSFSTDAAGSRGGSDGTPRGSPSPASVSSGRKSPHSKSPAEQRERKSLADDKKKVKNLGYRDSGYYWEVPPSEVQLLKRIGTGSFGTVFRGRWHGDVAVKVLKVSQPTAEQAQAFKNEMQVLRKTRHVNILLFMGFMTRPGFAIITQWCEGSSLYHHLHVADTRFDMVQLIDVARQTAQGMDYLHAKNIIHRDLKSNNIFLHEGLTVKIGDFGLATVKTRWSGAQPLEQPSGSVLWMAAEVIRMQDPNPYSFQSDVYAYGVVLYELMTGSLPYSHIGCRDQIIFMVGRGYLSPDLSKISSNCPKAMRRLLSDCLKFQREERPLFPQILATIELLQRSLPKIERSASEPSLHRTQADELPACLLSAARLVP
UniProt O14727: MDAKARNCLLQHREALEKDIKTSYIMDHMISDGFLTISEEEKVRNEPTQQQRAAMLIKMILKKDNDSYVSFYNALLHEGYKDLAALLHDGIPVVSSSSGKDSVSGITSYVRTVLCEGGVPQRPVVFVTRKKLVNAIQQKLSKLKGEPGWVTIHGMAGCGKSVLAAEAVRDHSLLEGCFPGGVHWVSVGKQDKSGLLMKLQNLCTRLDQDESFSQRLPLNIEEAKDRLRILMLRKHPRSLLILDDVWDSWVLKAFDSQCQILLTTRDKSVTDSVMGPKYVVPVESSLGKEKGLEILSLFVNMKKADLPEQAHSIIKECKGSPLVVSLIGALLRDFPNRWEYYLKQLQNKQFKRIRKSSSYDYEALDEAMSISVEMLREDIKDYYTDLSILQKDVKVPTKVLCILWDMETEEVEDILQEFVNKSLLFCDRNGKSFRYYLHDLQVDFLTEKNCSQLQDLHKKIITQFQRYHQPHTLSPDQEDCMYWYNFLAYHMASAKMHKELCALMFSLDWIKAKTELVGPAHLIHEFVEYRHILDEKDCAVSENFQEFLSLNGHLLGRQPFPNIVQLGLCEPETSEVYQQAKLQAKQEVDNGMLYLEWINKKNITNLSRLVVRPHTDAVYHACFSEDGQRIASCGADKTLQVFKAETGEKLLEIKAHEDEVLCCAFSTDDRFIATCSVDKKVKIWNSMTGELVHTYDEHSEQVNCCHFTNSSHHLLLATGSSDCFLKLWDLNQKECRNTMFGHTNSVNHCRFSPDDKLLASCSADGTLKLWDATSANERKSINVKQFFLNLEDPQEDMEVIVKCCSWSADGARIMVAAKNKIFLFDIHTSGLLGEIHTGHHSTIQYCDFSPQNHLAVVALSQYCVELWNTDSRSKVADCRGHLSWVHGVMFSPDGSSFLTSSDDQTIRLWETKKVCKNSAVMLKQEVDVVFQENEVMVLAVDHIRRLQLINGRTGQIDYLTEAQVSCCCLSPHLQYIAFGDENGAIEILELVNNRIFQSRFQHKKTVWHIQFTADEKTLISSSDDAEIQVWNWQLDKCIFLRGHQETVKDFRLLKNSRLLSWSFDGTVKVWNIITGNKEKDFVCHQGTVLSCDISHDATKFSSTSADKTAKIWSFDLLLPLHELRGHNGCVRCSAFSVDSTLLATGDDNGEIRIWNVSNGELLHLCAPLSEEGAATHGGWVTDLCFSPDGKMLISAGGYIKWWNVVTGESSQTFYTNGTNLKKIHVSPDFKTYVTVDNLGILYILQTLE
UniProt Q5T5U3: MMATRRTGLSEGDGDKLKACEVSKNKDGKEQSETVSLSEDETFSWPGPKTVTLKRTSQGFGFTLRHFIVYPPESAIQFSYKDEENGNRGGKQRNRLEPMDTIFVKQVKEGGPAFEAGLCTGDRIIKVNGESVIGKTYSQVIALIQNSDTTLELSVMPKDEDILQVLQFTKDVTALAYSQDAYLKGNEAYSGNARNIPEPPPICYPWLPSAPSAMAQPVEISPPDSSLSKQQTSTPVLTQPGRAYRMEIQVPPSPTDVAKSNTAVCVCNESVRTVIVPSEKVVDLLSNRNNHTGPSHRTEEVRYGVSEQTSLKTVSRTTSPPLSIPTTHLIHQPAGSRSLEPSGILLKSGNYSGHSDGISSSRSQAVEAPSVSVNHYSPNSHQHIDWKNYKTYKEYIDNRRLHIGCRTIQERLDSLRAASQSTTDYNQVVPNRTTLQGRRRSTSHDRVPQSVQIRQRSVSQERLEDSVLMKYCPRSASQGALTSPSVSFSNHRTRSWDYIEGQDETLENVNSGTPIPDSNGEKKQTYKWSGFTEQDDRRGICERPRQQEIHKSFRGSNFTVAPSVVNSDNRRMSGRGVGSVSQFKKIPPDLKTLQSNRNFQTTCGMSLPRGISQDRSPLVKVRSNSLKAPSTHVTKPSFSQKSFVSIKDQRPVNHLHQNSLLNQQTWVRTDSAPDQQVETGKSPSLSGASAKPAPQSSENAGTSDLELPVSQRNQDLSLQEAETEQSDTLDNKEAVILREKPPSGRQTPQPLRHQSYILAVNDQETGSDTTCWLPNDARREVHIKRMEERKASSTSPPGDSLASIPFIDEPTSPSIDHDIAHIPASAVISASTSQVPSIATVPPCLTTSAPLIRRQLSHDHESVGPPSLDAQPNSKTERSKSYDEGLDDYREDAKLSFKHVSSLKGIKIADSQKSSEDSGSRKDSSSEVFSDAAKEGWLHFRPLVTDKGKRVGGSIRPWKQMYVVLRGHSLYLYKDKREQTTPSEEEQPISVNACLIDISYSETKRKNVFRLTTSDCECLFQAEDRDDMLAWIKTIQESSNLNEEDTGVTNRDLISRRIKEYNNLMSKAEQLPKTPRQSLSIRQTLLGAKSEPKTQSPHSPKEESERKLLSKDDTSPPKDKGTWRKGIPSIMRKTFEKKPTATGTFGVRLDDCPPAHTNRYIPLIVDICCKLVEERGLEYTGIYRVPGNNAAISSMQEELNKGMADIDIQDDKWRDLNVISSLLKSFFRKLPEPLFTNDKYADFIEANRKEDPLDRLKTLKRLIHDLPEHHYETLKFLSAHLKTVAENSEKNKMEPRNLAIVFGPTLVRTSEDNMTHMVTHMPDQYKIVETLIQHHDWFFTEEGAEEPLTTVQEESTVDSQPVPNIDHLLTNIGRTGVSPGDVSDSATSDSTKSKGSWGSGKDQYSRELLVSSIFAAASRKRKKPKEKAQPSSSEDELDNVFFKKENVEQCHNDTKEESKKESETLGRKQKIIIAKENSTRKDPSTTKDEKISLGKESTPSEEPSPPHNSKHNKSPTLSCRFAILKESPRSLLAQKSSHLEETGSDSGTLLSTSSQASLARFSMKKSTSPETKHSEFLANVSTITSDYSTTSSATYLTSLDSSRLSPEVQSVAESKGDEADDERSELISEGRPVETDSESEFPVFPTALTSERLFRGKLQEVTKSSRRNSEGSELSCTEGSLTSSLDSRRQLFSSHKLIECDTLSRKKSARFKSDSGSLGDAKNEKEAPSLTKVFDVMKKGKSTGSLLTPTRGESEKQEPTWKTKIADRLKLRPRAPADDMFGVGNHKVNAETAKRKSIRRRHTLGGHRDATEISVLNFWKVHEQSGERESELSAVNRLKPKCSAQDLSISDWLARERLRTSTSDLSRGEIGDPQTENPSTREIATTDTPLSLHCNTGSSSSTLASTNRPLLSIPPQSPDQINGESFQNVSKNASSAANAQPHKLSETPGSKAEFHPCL
UniProt Q9H0R1: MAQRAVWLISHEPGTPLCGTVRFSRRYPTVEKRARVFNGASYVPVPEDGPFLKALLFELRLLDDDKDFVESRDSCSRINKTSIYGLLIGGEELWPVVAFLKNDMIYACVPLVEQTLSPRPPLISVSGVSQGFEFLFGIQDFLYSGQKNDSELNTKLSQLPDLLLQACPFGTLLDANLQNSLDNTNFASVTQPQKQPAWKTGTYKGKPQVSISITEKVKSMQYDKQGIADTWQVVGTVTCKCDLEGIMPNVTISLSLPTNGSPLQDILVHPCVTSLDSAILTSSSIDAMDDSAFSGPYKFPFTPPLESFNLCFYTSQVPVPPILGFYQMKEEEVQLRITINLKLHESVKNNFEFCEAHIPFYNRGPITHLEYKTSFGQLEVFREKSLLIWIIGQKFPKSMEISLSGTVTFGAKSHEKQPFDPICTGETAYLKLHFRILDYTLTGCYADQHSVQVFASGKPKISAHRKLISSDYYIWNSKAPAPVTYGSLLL
UniProt Q9HC16: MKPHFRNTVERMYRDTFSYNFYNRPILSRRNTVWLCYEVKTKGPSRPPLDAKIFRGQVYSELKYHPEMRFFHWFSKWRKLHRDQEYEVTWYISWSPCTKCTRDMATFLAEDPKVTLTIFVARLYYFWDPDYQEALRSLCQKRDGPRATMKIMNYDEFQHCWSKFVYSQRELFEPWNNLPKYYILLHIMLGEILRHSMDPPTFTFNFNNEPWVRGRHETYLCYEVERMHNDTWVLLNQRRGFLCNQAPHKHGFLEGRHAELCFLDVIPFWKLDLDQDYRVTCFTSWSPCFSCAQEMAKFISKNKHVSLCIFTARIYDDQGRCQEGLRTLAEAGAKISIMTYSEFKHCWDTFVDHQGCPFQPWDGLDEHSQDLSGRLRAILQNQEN
UniProt Q9Y4X5: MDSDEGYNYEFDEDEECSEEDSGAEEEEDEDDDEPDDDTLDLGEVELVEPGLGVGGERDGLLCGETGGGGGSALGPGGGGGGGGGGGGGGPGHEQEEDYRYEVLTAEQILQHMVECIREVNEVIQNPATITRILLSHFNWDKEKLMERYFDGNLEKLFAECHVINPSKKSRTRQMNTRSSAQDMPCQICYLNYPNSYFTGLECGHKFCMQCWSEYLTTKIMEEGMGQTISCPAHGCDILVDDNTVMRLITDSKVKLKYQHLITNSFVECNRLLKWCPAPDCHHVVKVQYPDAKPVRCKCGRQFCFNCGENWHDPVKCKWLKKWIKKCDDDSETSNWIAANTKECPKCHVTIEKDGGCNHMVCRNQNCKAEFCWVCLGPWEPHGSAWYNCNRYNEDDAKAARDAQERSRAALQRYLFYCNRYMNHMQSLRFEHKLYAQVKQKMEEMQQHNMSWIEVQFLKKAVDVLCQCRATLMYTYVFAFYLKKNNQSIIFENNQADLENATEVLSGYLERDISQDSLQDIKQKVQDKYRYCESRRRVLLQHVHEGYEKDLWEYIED
UniProt Q6UXV4: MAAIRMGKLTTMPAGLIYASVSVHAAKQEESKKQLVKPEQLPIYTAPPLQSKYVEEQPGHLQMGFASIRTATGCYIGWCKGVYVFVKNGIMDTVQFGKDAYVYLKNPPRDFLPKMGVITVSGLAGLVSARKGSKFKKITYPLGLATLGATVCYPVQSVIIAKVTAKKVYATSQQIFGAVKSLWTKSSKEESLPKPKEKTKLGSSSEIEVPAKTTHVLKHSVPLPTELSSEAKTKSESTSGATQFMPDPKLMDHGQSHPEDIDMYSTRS
UniProt Q8N5I2: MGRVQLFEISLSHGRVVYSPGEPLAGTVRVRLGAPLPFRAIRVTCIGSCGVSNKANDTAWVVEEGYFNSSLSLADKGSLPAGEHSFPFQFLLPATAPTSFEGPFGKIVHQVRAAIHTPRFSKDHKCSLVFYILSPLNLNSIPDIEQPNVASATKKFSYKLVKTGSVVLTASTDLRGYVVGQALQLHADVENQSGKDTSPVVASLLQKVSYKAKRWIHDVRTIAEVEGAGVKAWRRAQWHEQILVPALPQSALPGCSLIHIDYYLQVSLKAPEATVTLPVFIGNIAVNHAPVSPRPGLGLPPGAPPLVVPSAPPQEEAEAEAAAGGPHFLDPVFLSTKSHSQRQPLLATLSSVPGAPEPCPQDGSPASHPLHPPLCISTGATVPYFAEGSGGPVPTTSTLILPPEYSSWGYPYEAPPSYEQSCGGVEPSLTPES
UniProt Q7Z2E3: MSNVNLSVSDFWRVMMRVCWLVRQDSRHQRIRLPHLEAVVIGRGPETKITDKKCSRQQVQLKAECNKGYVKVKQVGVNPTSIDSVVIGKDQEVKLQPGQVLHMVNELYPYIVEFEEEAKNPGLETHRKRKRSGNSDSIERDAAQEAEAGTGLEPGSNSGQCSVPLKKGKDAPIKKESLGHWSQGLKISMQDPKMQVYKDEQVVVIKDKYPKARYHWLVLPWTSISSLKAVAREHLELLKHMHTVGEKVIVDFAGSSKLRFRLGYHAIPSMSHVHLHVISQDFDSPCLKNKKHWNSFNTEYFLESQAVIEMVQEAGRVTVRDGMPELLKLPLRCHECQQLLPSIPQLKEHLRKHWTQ
UniProt Q96GX9: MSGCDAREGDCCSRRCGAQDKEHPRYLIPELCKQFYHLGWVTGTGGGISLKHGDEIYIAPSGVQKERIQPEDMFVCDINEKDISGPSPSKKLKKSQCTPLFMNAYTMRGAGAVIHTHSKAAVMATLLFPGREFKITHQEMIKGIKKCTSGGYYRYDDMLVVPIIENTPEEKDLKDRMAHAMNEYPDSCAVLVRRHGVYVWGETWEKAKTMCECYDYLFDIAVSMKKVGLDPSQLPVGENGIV

Compound in one assay: NC(=O)c1cnc(N[C@@H]2CCCC[C@@H]2N)nc1Nc1cccc(-n2nccn2)c1
As to the kind of experiment: log2 fold change, soluble protein after heating vs DMSO (PISA); higher = thermal stabilisation; K562 lysate, 10 uM; active = over 0.2 and 3.5 SD of the protein, either way, in both replicates (recomputed). The method, boiled down:
(§1)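 Following dounce homogenisation of K562 pellets in PBS pH 7.4 with 1 mM MgCl2, crude extract at 1 mg/mL protein was incubated for 30 min with 10 μM compound. Aliquots were then heated for 3 min over 48°C-58°C and pooled, NP-40 was added to 0.5% at 4°C, and soluble protein was recovered as the supernatant at 21,000xg for 90 min. Channel-sum-equalised TMTpro 16plex LC-MS/MS quantified this protein. Each value, from duplicates, is a log-two fold change in thermal stability relative to solvent controls.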
As for ARID4B (UniProt Q4LE39), the log2 fold change was inactive: -0.023.
ARAF (UniProt P10398): the log2 fold change was inactive: 0.018.
In the case of APAF1 (UniProt O14727), the log2 fold change was inactive: 0.
For the target ARFGAP3 (UniProt Q9NP61), the log2 fold change was inactive: -0.03.
As to ARHGAP21 (UniProt Q5T5U3), the log2 fold change was inactive: 0.002.
The same measure, in the same setting: as for APMAP (UniProt Q9HDC9), the figure is inactive: -0.011; as for AP5M1 (UniProt Q9H0R1), inactive: -0.016; as for APOBEC3C (UniProt Q9NRW3), inactive: -0.001.
In the case of APOC1 (UniProt P02654), the log2 fold change is inactive: 0.018.
ARFIP1 (UniProt P53367): the log2 fold change was inactive: 0.019.

Compound in the next assay: NC1(c2ccc(-c3nc4ccn5c(=O)[nH]nc5c4cc3-c3ccccc3)cc2)CCC1
The assay is described as above. A digest of the protocol: as §1
For ASAP1 isoform 2 (UniProt Q9ULH1), the log2 fold change is inactive: 0.004.
For APOBEC3G (UniProt Q9HC16), the log2 fold change is inactive: -0.051.
As to AP5Z1 (UniProt O43299), the log2 fold change was inactive: -0.046.
For ARIH1 (UniProt Q9Y4X5), the log2 fold change is inactive: 0.007.
ARHGEF10 (UniProt O15013): the log2 fold change is inactive: -0.032.
For APOOL (UniProt Q6UXV4), the log2 fold change was inactive: 0.009.
For ARFGEF2 (UniProt Q9Y6D5), the log2 fold change is inactive: -0.017.
ARRDC1 (UniProt Q8N5I2): the log2 fold change was inactive: -0.112.
Turning to APTX (UniProt Q7Z2E3), the log2 fold change is inactive: -0.012.
The same measure, in the same setting: for APIP (UniProt Q96GX9) the value was inactive: -0.009; for ARMCX3 (UniProt Q9UH62), inactive: -0.002; for ARSA (UniProt P15289), inactive: 0.
On the same count and under the same terms, for ARHGAP18 (UniProt Q8N392) the value was inactive: 0.021.

(Values after the supplement of paper PMC10849652.)
